In the supplement of paper PMC10849652:
The list shows a part of the results.

By UniProt entry, the sequences of proteins in these tests, tags left out. Where a name states a change or a piece, a line headed by the entry shows the natural chain unless it says otherwise.
UniProt Q53T59: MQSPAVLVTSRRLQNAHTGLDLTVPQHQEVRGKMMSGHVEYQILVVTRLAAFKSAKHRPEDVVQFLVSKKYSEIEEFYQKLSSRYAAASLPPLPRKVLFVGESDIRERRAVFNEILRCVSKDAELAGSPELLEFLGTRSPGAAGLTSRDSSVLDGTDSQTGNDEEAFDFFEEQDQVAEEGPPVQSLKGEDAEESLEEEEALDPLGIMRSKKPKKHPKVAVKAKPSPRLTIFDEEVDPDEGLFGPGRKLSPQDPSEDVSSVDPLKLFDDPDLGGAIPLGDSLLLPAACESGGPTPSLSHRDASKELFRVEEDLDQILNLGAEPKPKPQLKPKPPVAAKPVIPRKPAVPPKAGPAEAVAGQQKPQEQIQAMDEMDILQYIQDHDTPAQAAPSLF
UniProt Q9BUJ2: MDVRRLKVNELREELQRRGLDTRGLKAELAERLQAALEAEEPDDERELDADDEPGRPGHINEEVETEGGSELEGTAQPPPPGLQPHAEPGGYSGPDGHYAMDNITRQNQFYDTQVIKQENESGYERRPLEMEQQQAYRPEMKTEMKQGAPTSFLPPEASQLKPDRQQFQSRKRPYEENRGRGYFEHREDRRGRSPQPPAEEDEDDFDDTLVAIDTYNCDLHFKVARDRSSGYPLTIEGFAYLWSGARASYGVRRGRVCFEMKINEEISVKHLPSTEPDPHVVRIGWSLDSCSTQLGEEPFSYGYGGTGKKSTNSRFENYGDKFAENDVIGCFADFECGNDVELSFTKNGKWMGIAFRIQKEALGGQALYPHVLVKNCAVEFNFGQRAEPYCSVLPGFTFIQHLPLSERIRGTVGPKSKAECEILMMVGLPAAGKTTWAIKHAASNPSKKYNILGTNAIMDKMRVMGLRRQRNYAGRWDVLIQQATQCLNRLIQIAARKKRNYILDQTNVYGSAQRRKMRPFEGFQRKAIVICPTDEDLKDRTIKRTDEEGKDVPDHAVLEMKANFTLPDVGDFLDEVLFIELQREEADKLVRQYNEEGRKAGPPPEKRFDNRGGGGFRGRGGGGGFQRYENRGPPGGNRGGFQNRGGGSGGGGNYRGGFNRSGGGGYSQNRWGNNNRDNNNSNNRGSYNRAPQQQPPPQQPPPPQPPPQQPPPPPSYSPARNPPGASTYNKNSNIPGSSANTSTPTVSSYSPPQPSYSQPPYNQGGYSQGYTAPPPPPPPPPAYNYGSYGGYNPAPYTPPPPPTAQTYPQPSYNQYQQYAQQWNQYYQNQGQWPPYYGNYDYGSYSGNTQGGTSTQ
UniProt Q9BTY7: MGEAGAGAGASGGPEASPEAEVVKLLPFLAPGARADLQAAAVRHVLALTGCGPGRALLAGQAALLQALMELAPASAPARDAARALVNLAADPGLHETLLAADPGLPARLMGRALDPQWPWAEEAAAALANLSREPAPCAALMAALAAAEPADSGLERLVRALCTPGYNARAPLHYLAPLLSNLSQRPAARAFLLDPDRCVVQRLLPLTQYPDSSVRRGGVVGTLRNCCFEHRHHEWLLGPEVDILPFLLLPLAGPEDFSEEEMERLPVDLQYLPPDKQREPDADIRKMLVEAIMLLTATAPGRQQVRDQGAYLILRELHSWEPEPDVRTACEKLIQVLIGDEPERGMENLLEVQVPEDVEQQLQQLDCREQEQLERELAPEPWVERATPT
UniProt O95757: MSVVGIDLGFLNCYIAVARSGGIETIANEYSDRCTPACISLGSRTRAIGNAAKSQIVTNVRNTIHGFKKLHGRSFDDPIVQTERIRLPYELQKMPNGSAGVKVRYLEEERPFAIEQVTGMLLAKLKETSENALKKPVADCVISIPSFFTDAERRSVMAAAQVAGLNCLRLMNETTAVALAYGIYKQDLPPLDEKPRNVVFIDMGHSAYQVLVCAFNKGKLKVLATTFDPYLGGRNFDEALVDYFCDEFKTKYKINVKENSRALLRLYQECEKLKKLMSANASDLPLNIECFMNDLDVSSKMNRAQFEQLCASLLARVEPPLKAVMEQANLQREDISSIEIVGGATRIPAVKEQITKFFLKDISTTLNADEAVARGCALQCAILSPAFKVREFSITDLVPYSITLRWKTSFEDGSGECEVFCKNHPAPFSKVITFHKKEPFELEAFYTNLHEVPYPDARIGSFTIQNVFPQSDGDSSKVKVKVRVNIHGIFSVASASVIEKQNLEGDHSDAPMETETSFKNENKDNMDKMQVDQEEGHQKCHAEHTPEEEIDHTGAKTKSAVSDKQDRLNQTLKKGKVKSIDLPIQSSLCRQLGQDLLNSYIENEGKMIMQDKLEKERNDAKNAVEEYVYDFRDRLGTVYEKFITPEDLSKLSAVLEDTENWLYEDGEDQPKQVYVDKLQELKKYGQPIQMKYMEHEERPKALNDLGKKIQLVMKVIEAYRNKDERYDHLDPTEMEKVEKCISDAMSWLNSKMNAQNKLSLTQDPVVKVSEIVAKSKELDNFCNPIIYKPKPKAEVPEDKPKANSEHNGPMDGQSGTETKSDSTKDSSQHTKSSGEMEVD
UniProt P17482: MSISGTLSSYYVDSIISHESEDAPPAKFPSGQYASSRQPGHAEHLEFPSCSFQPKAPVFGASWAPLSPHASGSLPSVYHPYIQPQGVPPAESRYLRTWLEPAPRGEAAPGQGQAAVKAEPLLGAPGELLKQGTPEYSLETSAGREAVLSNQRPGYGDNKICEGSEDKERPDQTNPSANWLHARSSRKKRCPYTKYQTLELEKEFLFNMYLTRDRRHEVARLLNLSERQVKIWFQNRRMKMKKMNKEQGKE
UniProt P31937: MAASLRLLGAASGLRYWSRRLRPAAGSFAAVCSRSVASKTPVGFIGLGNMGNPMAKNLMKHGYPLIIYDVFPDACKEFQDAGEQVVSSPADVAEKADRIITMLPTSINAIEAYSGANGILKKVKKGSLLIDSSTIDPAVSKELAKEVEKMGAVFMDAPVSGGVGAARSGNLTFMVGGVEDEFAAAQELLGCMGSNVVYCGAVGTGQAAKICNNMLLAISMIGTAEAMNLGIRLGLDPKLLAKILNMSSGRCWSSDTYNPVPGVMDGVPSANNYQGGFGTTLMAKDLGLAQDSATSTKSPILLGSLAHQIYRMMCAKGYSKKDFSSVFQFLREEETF
UniProt Q8NG08: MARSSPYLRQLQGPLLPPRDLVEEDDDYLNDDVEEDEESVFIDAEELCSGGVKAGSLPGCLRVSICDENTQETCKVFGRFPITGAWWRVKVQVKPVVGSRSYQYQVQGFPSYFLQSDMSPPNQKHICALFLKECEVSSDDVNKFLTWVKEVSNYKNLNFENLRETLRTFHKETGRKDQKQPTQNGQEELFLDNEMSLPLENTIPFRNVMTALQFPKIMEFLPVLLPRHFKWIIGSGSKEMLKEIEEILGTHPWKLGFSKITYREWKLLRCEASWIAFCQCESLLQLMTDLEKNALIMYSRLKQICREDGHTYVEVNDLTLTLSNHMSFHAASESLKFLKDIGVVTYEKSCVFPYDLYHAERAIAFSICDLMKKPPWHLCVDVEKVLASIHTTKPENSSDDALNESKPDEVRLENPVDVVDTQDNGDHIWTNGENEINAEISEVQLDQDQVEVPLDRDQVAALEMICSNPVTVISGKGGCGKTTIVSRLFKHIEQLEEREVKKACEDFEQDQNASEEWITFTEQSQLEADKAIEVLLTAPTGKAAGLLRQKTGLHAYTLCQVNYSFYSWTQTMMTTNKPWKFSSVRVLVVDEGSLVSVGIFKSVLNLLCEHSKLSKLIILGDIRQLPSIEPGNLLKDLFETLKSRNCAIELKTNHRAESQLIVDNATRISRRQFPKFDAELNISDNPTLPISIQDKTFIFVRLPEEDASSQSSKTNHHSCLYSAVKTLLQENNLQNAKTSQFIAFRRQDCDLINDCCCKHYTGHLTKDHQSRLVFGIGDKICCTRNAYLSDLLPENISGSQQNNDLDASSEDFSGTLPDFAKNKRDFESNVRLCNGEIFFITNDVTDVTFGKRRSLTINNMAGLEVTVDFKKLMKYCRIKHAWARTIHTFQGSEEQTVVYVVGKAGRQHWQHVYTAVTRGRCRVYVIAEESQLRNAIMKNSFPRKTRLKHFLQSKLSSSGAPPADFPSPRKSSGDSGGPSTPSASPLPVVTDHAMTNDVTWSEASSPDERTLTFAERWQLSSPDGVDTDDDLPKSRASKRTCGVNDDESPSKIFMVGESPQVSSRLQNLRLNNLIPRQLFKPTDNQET
UniProt Q96ED9: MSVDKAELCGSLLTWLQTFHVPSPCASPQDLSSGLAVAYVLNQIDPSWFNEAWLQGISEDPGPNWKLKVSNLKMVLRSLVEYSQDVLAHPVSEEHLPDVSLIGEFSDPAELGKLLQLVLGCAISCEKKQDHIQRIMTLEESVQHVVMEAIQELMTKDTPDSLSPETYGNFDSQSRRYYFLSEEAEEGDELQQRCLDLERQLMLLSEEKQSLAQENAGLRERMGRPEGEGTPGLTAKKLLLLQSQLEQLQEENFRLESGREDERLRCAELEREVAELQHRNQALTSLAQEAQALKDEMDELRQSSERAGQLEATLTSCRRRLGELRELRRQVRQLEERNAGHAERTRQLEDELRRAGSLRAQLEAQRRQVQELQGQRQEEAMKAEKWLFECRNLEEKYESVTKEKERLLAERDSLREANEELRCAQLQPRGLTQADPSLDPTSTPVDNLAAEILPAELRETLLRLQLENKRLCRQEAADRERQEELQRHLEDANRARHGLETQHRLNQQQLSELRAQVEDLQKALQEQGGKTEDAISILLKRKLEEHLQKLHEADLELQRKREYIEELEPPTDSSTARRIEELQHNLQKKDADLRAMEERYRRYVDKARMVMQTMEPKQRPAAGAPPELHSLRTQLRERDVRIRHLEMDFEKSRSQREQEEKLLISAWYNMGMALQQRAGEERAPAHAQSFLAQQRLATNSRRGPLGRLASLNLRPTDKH
UniProt O14964, whole entry, looked up: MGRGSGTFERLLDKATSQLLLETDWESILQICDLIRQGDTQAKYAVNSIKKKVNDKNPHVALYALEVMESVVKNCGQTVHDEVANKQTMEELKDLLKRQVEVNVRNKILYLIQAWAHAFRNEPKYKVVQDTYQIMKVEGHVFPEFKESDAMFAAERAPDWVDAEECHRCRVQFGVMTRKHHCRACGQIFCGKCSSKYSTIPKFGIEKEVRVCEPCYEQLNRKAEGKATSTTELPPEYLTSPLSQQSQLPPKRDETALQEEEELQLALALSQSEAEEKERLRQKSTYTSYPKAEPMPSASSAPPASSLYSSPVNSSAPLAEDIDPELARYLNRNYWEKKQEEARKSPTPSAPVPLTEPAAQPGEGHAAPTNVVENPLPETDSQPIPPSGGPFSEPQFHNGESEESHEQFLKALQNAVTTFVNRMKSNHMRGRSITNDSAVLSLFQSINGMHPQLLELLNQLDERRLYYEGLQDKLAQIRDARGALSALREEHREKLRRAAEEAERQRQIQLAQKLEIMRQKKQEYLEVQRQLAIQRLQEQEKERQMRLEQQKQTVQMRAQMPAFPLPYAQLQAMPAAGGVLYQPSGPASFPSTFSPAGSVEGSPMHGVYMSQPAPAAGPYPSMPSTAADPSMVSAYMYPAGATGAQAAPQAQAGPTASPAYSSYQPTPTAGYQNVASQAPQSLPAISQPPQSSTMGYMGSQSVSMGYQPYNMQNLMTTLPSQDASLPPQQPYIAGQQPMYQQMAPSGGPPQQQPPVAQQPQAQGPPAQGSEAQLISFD
UniProt Q9Y5Z4: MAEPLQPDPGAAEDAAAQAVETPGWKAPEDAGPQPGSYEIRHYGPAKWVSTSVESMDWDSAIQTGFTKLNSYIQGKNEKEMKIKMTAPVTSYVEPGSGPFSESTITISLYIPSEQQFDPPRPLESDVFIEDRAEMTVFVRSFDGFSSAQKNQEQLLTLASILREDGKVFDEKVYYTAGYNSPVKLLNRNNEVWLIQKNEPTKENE
UniProt Q92902: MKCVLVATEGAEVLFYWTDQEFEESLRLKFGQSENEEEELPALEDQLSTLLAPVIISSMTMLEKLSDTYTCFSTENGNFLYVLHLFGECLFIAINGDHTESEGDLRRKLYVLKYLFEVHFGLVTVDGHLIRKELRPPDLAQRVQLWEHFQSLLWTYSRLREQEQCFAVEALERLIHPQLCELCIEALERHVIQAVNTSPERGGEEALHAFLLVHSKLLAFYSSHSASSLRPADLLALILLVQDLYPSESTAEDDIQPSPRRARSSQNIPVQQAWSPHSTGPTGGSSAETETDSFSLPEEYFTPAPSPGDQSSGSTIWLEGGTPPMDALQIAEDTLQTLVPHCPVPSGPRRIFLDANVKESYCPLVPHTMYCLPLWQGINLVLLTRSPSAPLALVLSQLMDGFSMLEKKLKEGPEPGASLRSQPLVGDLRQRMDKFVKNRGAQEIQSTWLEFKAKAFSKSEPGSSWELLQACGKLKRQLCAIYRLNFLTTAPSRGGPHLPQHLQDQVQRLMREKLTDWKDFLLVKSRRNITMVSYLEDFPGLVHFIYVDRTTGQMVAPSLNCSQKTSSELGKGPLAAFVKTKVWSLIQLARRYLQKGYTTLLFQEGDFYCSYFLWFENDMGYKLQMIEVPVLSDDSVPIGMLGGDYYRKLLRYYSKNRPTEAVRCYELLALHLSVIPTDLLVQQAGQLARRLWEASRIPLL

Assays:
Assay in all cases: log2 fold change, soluble protein after heating vs DMSO (PISA); higher = thermal stabilisation; K562 lysate, 10 uM; active = over 0.2 and 3.5 SD of the protein, either way, in both replicates (recomputed)
[1] = compound: CS(=O)(=O)CCNCc1ccc(-c2ccc3ncnc(Nc4ccc(OCc5cccc(F)c5)c(Cl)c4)c3c2)o1 [lapatinib]
In short: (§1)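 Following dounce homogenisation of K562 pellets in PBS pH 7.4 with 1 mM MgCl2, crude extract at 1 mg/mL protein was incubated for 30 min with 10 μM compound. Aliquots were then heated for 3 min over 48°C-58°C and pooled, NP-40 was added to 0.5% at 4°C, and soluble protein was recovered as the supernatant at 21,000xg for 90 min. Channel-sum-equalised TMTpro 16plex LC-MS/MS quantified this protein. Each value, from duplicates, is a log-two fold change in thermal stability relative to solvent controls.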

[2] = compound: CS(=O)(=O)N1CCN(Cc2cc3nc(-c4cccc5[nH]ncc45)nc(N4CCOCC4)c3s2)CC1 [pictilisib]
In short: as §1

[3] = compound: C[C@@H](Oc1cc(-c2cnn(C3CCNCC3)c2)cnc1N)c1c(Cl)ccc(F)c1Cl [crizotinib]
In short: as §1

[4] = compound: C[C@H](C1=CC=C(C=C1)C(=O)NC2=C3C=CNC3=NC=C2)N
In short: as §1

[5] = compound: C[C@H](Nc1ncnc2nc[nH]c12)c1cc2cccc(Cl)c2c(=O)n1-c1ccccc1 [duvelisib]
In short: as §1

[6] = compound: Cc1cc(Nc2cc(CN3CCOCC3)c3nc(C)c(Cc4ccc(Cl)cc4F)n3n2)n[nH]1 [gandotinib]
In short: as §1

[7] = compound: Cc1cc(Nc2cc(N3CCN(C)CC3)nc(Sc3ccc(NC(=O)C4CC4)cc3)n2)n[nH]1 [tozasertib]
In short: as §1

[8] = compound: Cc1ccc(-n2nc(C(C)(C)C)cc2NC(=O)Nc2ccc(OCCN3CCOCC3)c3ccccc23)cc1 [doramapimod]
In short: as §1

[9] = compound: Cc1ccc(NC(=O)c2ccc(CN3CC[C@H](N(C)C)C3)c(C(F)(F)F)c2)cc1Nc1nccc(-c2cncnc2)n1 [bafetinib]
In short: as §1

[10] = compound: Cc1cccc(CC(=O)N2CCc3c2ccc(-c2cn(C)c4ncnc(N)c24)c3F)n1
In short: as §1

[11] = compound: Cc1cn(-c2cc(NC(=O)c3ccc(C)c(Nc4nccc(-c5cccnc5)n4)c3)cc(C(F)(F)F)c2)cn1 [nilotinib]
In short: as §1

[12] = compound: Cc1nc(Nc2n[nH]c3c2CN(C(=O)N[C@H](CN(C)C)c2ccccc2)C3(C)C)c2sccc2n1
In short: as §1

[13] = compound: Cc1nc(Nc2ncc(C(=O)Nc3c(C)cccc3Cl)s2)cc(N2CCN(CCO)CC2)n1 [dasatinib]
In short: as §1

[14] = compound: Cc1ncc(-c2ccnc(Nc3ccc(S(C)(=O)=O)cc3)n2)n1C(C)C
In short: as §1

[15] = compound: Cn1cc(-c2ccc3c(c2)CCN3C(=O)Cc2cccc(C(F)(F)F)c2)c2c(N)ncnc21
In short: as §1

[16] = compound: Cn1cc(CNCC2CCN(c3ncc(C(=O)NO)cn3)CC2)c2ccccc21 [quisinostat]
In short: as §1

[17] = compound: Cn1cncc1[C@@](N)(c1ccc(Cl)cc1)c1ccc2c(c1)c(-c1cccc(Cl)c1)cc(=O)n2C [tipifarnib]
In short: as §1

[18] = compound: NC(=O)Nc1cc(-c2cccc(F)c2)sc1C(=O)N[C@H]1CCCNC1
In short: as §1

[19] = compound: NC(=O)c1cnc(N[C@@H]2CCCC[C@@H]2N)nc1Nc1cccc(-n2nccn2)c1
In short: as §1

[20] = compound: NC1(c2ccc(-c3nc4ccn5c(=O)[nH]nc5c4cc3-c3ccccc3)cc2)CCC1
In short: as §1

Target	log2 fold change [1]	log2 fold change [2]	log2 fold change [3]	log2 fold change [4]	log2 fold change [5]	log2 fold change [6]	log2 fold change [7]	log2 fold change [8]	log2 fold change [9]	log2 fold change [10]	log2 fold change [11]	log2 fold change [12]	log2 fold change [13]	log2 fold change [14]	log2 fold change [15]	log2 fold change [16]	log2 fold change [17]	log2 fold change [18]	log2 fold change [19]	log2 fold change [20]
HS1BP3 (UniProt Q53T59)	inactive: 0.024	inactive: -0.019	inactive: 0.006	active: -0.253	inactive: -0.047	inactive: 0.068	inactive: 0.021	inactive: -0.019	inactive: -0.048	inactive: 0.074	inactive: 0.021	inactive: -0.016	inactive: 0.023	inactive: -0.007	inactive: 0	inactive: -0.006	inactive: 0.042	inactive: -0.019	inactive: 0.024	inactive: -0.014
HNRNPUL1 (UniProt Q9BUJ2)	inactive: -0.008	inactive: -0.05	inactive: 0.043	inactive: 0.005	inactive: 0.01	inactive: -0.013	inactive: 0.012	inactive: -0.107	inactive: 0.051	inactive: -0.023	active: -0.291	inactive: 0.018	inactive: -0.012	inactive: 0.006	inactive: 0.01	inactive: 0.015	inactive: 0.019	inactive: 0.045	inactive: -0.003	inactive: -0.009
HGH1 (UniProt Q9BTY7)	inactive: -0.028	inactive: -0.031	inactive: -0.056	inactive: -0.009	inactive: 0.012	inactive: -0.073	inactive: 0.035	inactive: 0.014	inactive: -0.068	inactive: 0.064	inactive: 0.067	inactive: -0.004	inactive: -0.052	inactive: -0.024	inactive: 0.016	inactive: -0.015	inactive: 0	inactive: 0.047	inactive: 0.074	inactive: -0.017
HSPA4L (UniProt O95757)	inactive: 0.013	inactive: -0.009	inactive: 0.016	inactive: -0.016	inactive: -0.001	inactive: 0.002	inactive: -0.011	inactive: -0.008	inactive: -0.002	inactive: 0.027	inactive: -0.026	inactive: -0.006	inactive: 0.001	inactive: 0.012	inactive: -0.007	inactive: -0.006	inactive: 0.003	inactive: 0.002	inactive: -0.002	inactive: -0.01
HERC4 (UniProt Q5GLZ8)	inactive: -0.003	inactive: 0.004	inactive: -0.031	inactive: -0.107	inactive: -0.002	inactive: 0.017	inactive: 0.02	inactive: 0.032	inactive: -0.029	inactive: 0.048	inactive: 0.003	inactive: -0.02	inactive: -0.011	inactive: 0.008	inactive: -0.015	inactive: -0.06	inactive: 0.019	inactive: 0.004	inactive: -0.007	inactive: -0.048
HOXB9 (UniProt P17482)	inactive: -0.001	inactive: 0	inactive: -0.156	inactive: -0.017	inactive: -0.121	inactive: 0.152	inactive: -0.112	inactive: 0.02	inactive: -0.198	inactive: -0.008	inactive: -0.014	inactive: -0.077	inactive: 0.009	inactive: 0	inactive: 0.054	inactive: -0.124	inactive: 0.002	inactive: 0.101	inactive: 0.016	inactive: -0.055
HIBADH (UniProt P31937)	inactive: 0.01	inactive: -0.001	inactive: 0.012	inactive: 0.025	inactive: -0.016	inactive: 0.004	inactive: 0	inactive: -0.031	inactive: 0.044	inactive: -0.042	inactive: 0.045	inactive: -0.015	inactive: 0.007	inactive: 0.03	inactive: -0.048	inactive: 0.047	inactive: 0.05	inactive: -0.008	inactive: -0.012	inactive: -0.015
HELB (UniProt Q8NG08)	inactive: 0.115	inactive: -0.014	inactive: -0.004	inactive: -0.048	inactive: 0.022	inactive: -0.031	inactive: 0.009	inactive: -0.009	inactive: -0.044	inactive: 0.103	inactive: 0.012	inactive: -0.031	inactive: 0.027	inactive: 0.016	inactive: 0.035	inactive: -0.029	inactive: -0.02	inactive: 0.032	inactive: 0.082	inactive: 0.067
HNRNPL, A0A3B3ITJ4	inactive: -0.011	inactive: -0.002	–	–	–	–	–	–	inactive: -0.083	–	–	–	–	–	–	–	–	–	inactive: 0.019	–
HOOK2 (UniProt Q96ED9)	inactive: 0.043	inactive: 0.055	–	inactive: 0.138	inactive: -0.003	inactive: 0.004	–	–	inactive: -0.158	inactive: 0.123	inactive: 0.081	inactive: 0.003	inactive: -0.057	inactive: 0.066	inactive: -0.039	–	inactive: -0.041	–	inactive: 0.021	inactive: -0.16
HNRNPLL (UniProt Q8WVV9)	inactive: 0.017	inactive: -0.026	inactive: -0.038	inactive: -0.01	inactive: -0.016	inactive: -0.031	inactive: 0	inactive: 0.01	inactive: -0.031	inactive: 0.027	inactive: -0.031	inactive: 0.009	inactive: -0.019	inactive: 0.008	inactive: -0.001	inactive: -0.063	inactive: -0.008	inactive: 0.001	inactive: 0.015	inactive: -0.013
HGS (UniProt O14964)	inactive: 0.012	inactive: -0.008	inactive: 0.025	inactive: 0.031	inactive: -0.014	inactive: -0.013	inactive: -0.009	inactive: 0.006	inactive: -0.019	inactive: 0.011	inactive: -0.013	inactive: 0.002	inactive: -0.012	inactive: 0.033	inactive: 0.001	inactive: 0.047	inactive: 0.016	inactive: -0.027	inactive: -0.009	inactive: 0.013
HEBP2 (UniProt Q9Y5Z4)	inactive: -0.002	inactive: 0.005	inactive: 0.04	inactive: -0.011	inactive: 0.018	inactive: 0.03	inactive: 0.024	inactive: -0.004	inactive: 0.019	inactive: -0.017	inactive: 0.009	inactive: -0.028	inactive: 0.01	inactive: -0.008	inactive: 0.01	inactive: 0.021	inactive: 0.026	inactive: -0.014	inactive: 0.002	inactive: -0.009
HEXD isoform 2 (UniProt Q8WVB3)	inactive: -0.026	inactive: -0.025	–	inactive: -0.142	–	inactive: 0.061	inactive: -0.124	–	inactive: -0.093	inactive: -0.018	–	–	–	–	–	–	–	–	inactive: 0.04	inactive: -0.002
HMGN5 (UniProt Q5JSK9)	inactive: -0.04	inactive: 0.017	–	–	–	–	inactive: 0.074	–	inactive: -0.04	–	inactive: -0.074	inactive: 0.062	–	inactive: -0.036	–	–	inactive: 0.076	–	inactive: -0.035	–
HIP1 (UniProt O00291)	inactive: -0.036	inactive: -0.041	inactive: -0.01	inactive: -0.057	inactive: 0.019	inactive: 0.076	inactive: 0.03	inactive: 0.034	inactive: -0.033	inactive: 0.072	inactive: -0.049	inactive: 0.013	inactive: -0.039	inactive: -0.029	inactive: -0.003	inactive: -0.004	inactive: -0.064	inactive: -0.007	inactive: 0.008	inactive: -0.029
HNMT (UniProt P50135)	inactive: -0.097	inactive: -0.023	–	inactive: -0.086	inactive: 0.169	inactive: -0.019	inactive: -0.095	–	inactive: -0.041	inactive: 0.054	–	–	inactive: 0.124	–	inactive: -0.218	–	–	–	inactive: 0.013	inactive: -0.212
HPS1 (UniProt Q92902)	inactive: -0.071	inactive: 0.098	inactive: -0.027	inactive: -0.081	inactive: 0.043	inactive: 0.003	inactive: 0.042	inactive: 0.034	inactive: -0.086	inactive: 0.102	–	–	inactive: 0.005	–	inactive: -0.067	inactive: -0.031	–	inactive: 0.039	inactive: 0.027	inactive: -0.069
HSP90AA1 isoform 2 (UniProt P07900)	inactive: -0.007	inactive: 0.009	inactive: 0.011	inactive: 0.08	inactive: 0.007	inactive: -0.063	inactive: 0.005	inactive: -0.029	inactive: 0.024	inactive: -0.046	inactive: 0.004	inactive: 0.001	inactive: 0.012	inactive: 0.01	inactive: -0.002	inactive: 0.017	inactive: 0.011	inactive: 0.003	inactive: -0.008	inactive: 0.012

Copied from the list.
HGH1 (UniProt Q9BTY7) – log2 fold change [14]: inactive: -0.024
HNMT (UniProt P50135) – log2 fold change [5]: inactive: 0.169
